# Data published in article PMC5996148.
# The list shows a part of the results.
# Experiments:
# Assay in all cases: protein microarray (ProtoArray v5.0), streptavidin-Alexa Fluor 647
# Settings in all cases: 3'-biotin; 20 mM Tris (pH 7.5), 5 mM MgCl2, 100 mM KCl, 0.1% Tween-20, A/T-rich and random oligonucleotide blockers; temperature not stated; high values mean tight binding
# OSBPL1A (human) = tested on: OSBPL1A (human)
# OSTbeta (human) = tested on: OSTbeta (human)
# OTUB1 (human) = tested on: OTUB1 (human)
# OTUB2 (human) = tested on: OTUB2 (human)
# [1] = tested on: Olfactory receptor 3A1 (human)
# Optineurin (human) = tested on: Optineurin (human)
# [2] = tested on: Ornithine decarboxylase (human)
# P2RX1 (human) = tested on: P2RX1 (human)
# P2RXL1 (human) = tested on: P2RXL1 (human)
# PAFAH1B2 (human) = tested on: PAFAH1B2 (human)
sequence,measurement,setting,value
GGGGACAGGGGTATGGGGAGGGG [G4-3 biotinylated (CtG)],binding signal,OSBPL1A (human),-0.33 z-score
same,binding signal,OSTbeta (human),-0.329 z-score
same,binding signal,OTUB1 (human),-0.295 z-score
same,binding signal,OTUB2 (human),-0.33 z-score
same,binding signal,[1],-0.334 z-score
same,binding signal,Optineurin (human),-0.333 z-score
same,binding signal,[2],-0.323 z-score
same,binding signal,P2RX1 (human),-0.318 z-score
same,binding signal,P2RXL1 (human),-0.321 z-score
same,binding signal,PAFAH1B2 (human),-0.339 z-score

# Already shown: entries from further up.
sequence,measurement,setting,value
GGGGACAGGGGTATGGGGAGGGG [G4-3 biotinylated (CtG)],binding signal,OTUB2 (human),-0.33 z-score
same,binding signal,[1],-0.334 z-score
